{
  "sequences": {"note": "Amino acid sequences for entries named in this document (tags omitted). A change or cut given only in a name is not applied to a line headed by its entry. Residues count along the entry.", "UniProt Q9CAJ0, residues 23-511": "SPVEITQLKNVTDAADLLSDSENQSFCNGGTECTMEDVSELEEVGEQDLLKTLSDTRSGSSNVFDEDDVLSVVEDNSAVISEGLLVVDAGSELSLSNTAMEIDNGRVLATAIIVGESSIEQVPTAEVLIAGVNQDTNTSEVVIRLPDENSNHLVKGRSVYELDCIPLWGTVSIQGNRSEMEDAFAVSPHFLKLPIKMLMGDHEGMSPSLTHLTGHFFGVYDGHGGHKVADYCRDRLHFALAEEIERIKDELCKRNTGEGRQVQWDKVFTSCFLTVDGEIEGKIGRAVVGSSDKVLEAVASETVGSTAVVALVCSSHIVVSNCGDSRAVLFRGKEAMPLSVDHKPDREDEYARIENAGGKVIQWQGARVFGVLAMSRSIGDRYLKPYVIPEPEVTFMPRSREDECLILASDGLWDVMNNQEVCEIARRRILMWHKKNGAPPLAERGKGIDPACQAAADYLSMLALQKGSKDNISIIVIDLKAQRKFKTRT", "UniProt O49686": "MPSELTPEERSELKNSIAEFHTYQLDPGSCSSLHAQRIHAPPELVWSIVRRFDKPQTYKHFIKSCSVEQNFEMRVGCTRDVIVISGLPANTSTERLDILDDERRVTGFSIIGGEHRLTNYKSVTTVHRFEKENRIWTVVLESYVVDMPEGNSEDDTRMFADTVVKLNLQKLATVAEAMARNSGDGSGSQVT"},
  "source": "patent US20140259226A1",
  "note": "No constants are given. Whether binding was seen depends on the method and setting. Some results given as binding are weak or reduced against the parent protein; the word gives no strength.",
  "data": [
    {"molecular_target": "GAL4 activation domain-HAB1 fusion protein (UniProt Q9CAJ0)", "assay": "yeast two-hybrid, X-gal staining, no added ABA; strength of activating mutation", "values": [
      {"substance": "GAL4 BD-PYR1 I84K (from UniProt O49686 1-191) (receptor)", "binding": "binds"},
      {"substance": "GAL4 BD-PYR1 M158V (from UniProt O49686 1-191) (receptor)", "binding": "binds"},
      {"substance": "GAL4 BD-PYR1 V83L (from UniProt O49686 1-191) (receptor)", "binding": "binds"},
      {"substance": "GAL4 BD-PYR1 H60I (from UniProt O49686 1-191) (receptor)", "binding": "binds"},
      {"substance": "GAL4 BD-PYR1 K170W (from UniProt O49686 1-191) (receptor)", "binding": "binds"},
      {"substance": "GAL4 BD-PYR1 M158I (from UniProt O49686 1-191) (receptor)", "binding": "binds"},
      {"substance": "GAL4 BD-PYR1 I84E (from UniProt O49686 1-191) (receptor)", "binding": "binds"},
      {"substance": "GAL4 BD-PYR1 L166Y (from UniProt O49686 1-191) (receptor)", "binding": "binds"},
      {"substance": "GAL4 BD-PYR1 I84Q (from UniProt O49686 1-191) (receptor)", "binding": "binds"},
      {"substance": "GAL4 BD-PYR1 F159V (from UniProt O49686 1-191) (receptor)", "binding": "binds"},
      {"substance": "GAL4 BD-PYR1 H60G (from UniProt O49686 1-191) (receptor)", "binding": "binds"},
      {"substance": "GAL4 BD-PYR1 I84H (from UniProt O49686 1-191) (receptor)", "binding": "binds"},
      {"substance": "GAL4 BD-PYR1 L87F (from UniProt O49686 1-191) (receptor)", "binding": "binds"},
      {"substance": "GAL4 BD-PYR1 H60W (from UniProt O49686 1-191) (receptor)", "binding": "binds"},
      {"substance": "GAL4 BD-PYR1 H60M (from UniProt O49686 1-191) (receptor)", "binding": "binds"},
      {"substance": "GAL4 BD-PYR1 H60V (from UniProt O49686 1-191) (receptor)", "binding": "binds"},
      {"substance": "GAL4 BD-PYR1 H60P (from UniProt O49686 1-191) (receptor)", "binding": "binds"},
      {"substance": "GAL4 BD-PYR1 H60R (from UniProt O49686 1-191) (receptor)", "binding": "binds"},
      {"substance": "GAL4 BD-PYR1 M158C (from UniProt O49686 1-191) (receptor)", "binding": "binds"},
      {"substance": "GAL4 BD-PYR1 V83F (from UniProt O49686 1-191) (receptor)", "binding": "binds"},
      {"substance": "GAL4 BD-PYR1 F159A (from UniProt O49686 1-191) (receptor)", "binding": "binds"},
      {"substance": "GAL4 BD-PYR1 A89W (from UniProt O49686 1-191) (receptor)", "binding": "binds"},
      {"substance": "GAL4 BD-PYR1 L166F (from UniProt O49686 1-191) (receptor)", "binding": "binds"},
      {"substance": "GAL4 BD-PYR1 T162F (from UniProt O49686 1-191) (receptor)", "binding": "binds"},
      {"substance": "GAL4 BD-PYR1 H60A (from UniProt O49686 1-191) (receptor)", "binding": "binds"},
      {"substance": "GAL4 BD-PYR1 V83P (from UniProt O49686 1-191) (receptor)", "binding": "binds"},
      {"substance": "GAL4 BD-PYR1 H60K (from UniProt O49686 1-191) (receptor)", "binding": "binds"},
      {"substance": "GAL4 BD-PYR1 I84P (from UniProt O49686 1-191) (receptor)", "binding": "binds"},
      {"substance": "GAL4 BD-PYR1 M158T (from UniProt O49686 1-191) (receptor)", "binding": "binds"}
    ]}
  ]
}
